In PMC13545989:
These are yes or no findings as the source states them, for the method shown. In cells and extracts the contact can be indirect. Binding can be weak; no strength is given. Tags and fused reporters may be left off the sequences shown.

Biological target: T1, TRAK2 DRH mutant (F92A, M95A; mScarlet fusion) (UniProt O60296)
T1 sequence: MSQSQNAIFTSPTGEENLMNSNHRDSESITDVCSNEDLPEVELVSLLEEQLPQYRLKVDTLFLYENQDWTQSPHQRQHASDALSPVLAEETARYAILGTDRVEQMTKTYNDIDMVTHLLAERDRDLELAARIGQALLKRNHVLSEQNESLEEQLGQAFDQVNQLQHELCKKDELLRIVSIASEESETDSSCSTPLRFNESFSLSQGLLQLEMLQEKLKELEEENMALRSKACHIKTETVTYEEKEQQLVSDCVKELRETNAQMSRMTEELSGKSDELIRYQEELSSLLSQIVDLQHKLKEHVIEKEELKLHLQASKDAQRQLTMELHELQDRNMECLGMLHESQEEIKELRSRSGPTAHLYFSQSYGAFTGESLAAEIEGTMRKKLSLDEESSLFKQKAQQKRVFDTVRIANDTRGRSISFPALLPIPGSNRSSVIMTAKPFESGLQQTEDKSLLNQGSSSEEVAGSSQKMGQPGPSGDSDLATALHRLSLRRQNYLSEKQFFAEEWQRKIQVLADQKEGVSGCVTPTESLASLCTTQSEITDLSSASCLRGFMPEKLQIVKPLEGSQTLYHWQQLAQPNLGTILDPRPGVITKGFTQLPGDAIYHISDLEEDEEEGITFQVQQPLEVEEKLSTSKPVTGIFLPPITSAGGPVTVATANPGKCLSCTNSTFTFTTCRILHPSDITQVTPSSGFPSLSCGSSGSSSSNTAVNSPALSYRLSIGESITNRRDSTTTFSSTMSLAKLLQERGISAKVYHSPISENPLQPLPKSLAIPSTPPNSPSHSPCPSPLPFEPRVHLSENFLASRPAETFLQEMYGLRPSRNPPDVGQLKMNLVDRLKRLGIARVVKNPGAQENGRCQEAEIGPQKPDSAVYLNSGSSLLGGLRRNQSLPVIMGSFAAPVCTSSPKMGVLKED
Experiment: co-IP; FLAG purification of Miro1/FP/FLAG/I3-01 synthetic cargo from hTERT RPE-1 cell lines co-expressing TRAK/mScarlet variants; immunoblot of the associated motor-adaptor components (kinesin, dynein, dynactin); also done after kinesin RNAi (fig. S4E)

binding: binds
Substance: kinesin-1 (human (endogenous in hTERT RPE-1))
